Experimental data published in patent US20060270596A1.
Results are given in words; binding and its absence hold for the method and conditions named. For some assays here: In cells and extracts the contact can be indirect. Some entries that bind do so weakly or less than the wild type. For some assays here: Tags and fused reporters may be left off the sequences shown.

Protein sequences, listed by entry. Tags and fused reporters are not part of them. Lines headed by an entry give the natural chain unless they say otherwise; changes in a name come on top. Residues count along the entry.
UniProt P02778: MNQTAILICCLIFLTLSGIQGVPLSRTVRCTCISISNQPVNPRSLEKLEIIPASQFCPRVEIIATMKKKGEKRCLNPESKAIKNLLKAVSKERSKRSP
UniProt Q99731: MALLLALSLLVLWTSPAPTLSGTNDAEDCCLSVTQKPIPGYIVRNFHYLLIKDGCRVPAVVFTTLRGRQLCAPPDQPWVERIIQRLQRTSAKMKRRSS
UniProt O00585: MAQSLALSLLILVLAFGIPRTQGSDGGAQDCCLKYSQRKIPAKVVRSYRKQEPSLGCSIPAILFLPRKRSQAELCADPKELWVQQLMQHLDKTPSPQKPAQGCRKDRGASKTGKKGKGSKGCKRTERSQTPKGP
UniProt P48061, residues 1-89: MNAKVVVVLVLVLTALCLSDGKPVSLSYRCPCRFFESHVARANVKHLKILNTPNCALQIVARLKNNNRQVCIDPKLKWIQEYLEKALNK
UniProt P13500: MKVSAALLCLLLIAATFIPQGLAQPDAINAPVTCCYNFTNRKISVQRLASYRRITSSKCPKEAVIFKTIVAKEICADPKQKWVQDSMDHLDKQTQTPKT

Legend:
[1] = target: T1, GST-Par4DD fusion protein (Par4 amino acids 250-342) (human) (UniProt Q96IZ0); test: GST pull-down: in vitro translated 35S-labelled protein on GST-Par4DD immobilised on glutathione sepharose, SDS-PAGE, fluorography
T1 sequence: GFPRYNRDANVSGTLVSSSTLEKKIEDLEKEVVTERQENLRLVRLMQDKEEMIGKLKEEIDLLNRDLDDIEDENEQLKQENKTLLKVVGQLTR

[2] = target: T2, partial human PAR4 from the two-hybrid library clones (positions 193-342) (human) (UniProt Q96IZ0); test: yeast two-hybrid screen of HEVEC cDNA library with THAP1 bait
T2 sequence: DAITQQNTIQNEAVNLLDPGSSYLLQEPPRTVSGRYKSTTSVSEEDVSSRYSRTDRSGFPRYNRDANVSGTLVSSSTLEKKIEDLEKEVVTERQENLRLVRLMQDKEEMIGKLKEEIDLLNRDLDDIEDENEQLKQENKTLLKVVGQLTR

[3] = target: T3, human chemokine MIG/CXCL9, mature form (amino acids 23-125) (human) (UniProt Q07325); test: yeast two-hybrid, chemokine bait and THAP1 prey
T3 sequence: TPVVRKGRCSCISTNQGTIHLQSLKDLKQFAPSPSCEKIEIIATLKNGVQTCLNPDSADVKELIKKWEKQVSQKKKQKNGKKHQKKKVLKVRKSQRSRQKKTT

[4] = target: human chemokine IP10/CXCL10, mature form (amino acids 22-98) (human) (UniProt P02778); test: yeast two-hybrid
[5] = target: T3, human chemokine MIG/CXCL9, mature form (amino acids 23-125) (human); test: yeast two-hybrid
[6] = target: T1, GST-Par4DD fusion protein (Par4 amino acids 250-342) (human); test: GST pull-down, 35S-labelled in vitro translated THAP1 on immobilized GST-Par4DD
[7] = target: T4, GST-THAP1 fusion protein (THAP1 amino acids 1-213) (human); test: GST pull-down: in vitro translated 35S-labelled protein on GST-THAP1 immobilised on glutathione sepharose, SDS-PAGE, fluorography
T4 sequence: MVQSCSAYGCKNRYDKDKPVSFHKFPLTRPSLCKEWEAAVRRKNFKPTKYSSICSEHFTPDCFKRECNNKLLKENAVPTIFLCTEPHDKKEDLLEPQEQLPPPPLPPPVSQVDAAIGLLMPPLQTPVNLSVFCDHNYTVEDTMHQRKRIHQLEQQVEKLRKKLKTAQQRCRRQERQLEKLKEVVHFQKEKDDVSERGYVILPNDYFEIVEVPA

[8] = target: human chemokine ELC/CCL19, mature form (amino acids 22-98) (human) (UniProt Q99731); test: GST pull-down (FIG. 20C)
[9] = target: human chemokine IP10/CXCL10, mature form (amino acids 22-98) (human) (UniProt P02778); test: GST pull-down (FIG. 20C)
[10] = target: T3, human chemokine MIG/CXCL9, mature form (amino acids 23-125) (human); test: GST pull-down (FIG. 20C)
[11] = target: human chemokine SLC/CCL21, mature form (amino acids 24-134) (human) (UniProt O00585); test: GST pull-down, 35S-labelled in vitro translated SLC/CCL21
[12] = target: human chemokine ELC/CCL19, mature form (amino acids 22-98) (human) (UniProt Q99731); test: GST pull-down: in vitro translated 35S-labelled chemokine or cytokine on the GST fusion immobilised on glutathione sepharose, SDS-PAGE, fluorography
[13] = target: human chemokine IP10/CXCL10, mature form (amino acids 22-98) (human) (UniProt P02778); test: as above
[14] = target: T3, human chemokine MIG/CXCL9, mature form (amino acids 23-125) (human); test: as above
[15] = target: human chemokine SLC/CCL21, mature form (amino acids 24-134) (human) (UniProt O00585); test: GST pull-down, 35S-labelled in vitro translated chemokine
[16] = target: human chemokine ELC/CCL19, mature form (amino acids 22-98) (human) (UniProt Q99731); test: as above
[17] = target: human chemokine IP10/CXCL10, mature form (amino acids 22-98) (human) (UniProt P02778); test: as above
[18] = target: T3, human chemokine MIG/CXCL9, mature form (amino acids 23-125) (human); test: as above
[19] = target: human chemokine SLC/CCL21, mature form (amino acids 24-134) (human) (UniProt O00585); test: GST pull-down with GST-THAP1, 35S-labelled in vitro translated chemokine
[20] = target: human chemokine SLC/CCL21, mature form (amino acids 24-134) (human) (UniProt O00585); test: GST pull-down: in vitro translated 35S-labelled chemokine or cytokine on the GST fusion immobilised on glutathione sepharose, SDS-PAGE, fluorography
[21] = target: chemokine CXCL12 (UniProt P48061); test: as above
[22] = target: chemokine CCL2 (UniProt P13500); test: as above
[23] = target: chemokine CXCL12 (UniProt P48061); test: GST pull-down, 35S-labelled in vitro translated chemokine
[24] = target: chemokine CCL2 (UniProt P13500); test: as above
[25] = target: T1, GST-Par4DD fusion protein (Par4 amino acids 250-342) (human); test: GST pull-down, 35S-labelled in vitro translated THAP3 on GST-Par4DD (FIG. 10C)

Measured: binding

B1: human THAP1 (THanatos-Associated-Protein-1), full length (protein)
chain: T4 sequence
binds: [1] | [2] | [3] | [4] | [5] | [6] | [7]

B2: GST-THAP1 fusion protein (THAP1 amino acids 1-213) (protein, not shown: a dimerising Fc or GST)
chain: T4 sequence
binds: [8] | [9] | [10] | [11] | [12] | [13] | [14] | [15] | [16] | [17] | [18] | [19]

B3: GST-THAP1 126-213 (chemokine-binding domain of THAP1, positive control) (protein, not shown: a dimerising Fc or GST)
chain: PVNLSVFCDHNYTVEDTMHQRKRIHQLEQQVEKLRKKLKTAQQRCRRQERQLEKLKEVVHFQKEKDDVSERGYVILPNDYFEIVEVPA
binds: [20] | [21] | [22] | [14] | [15] | [23] | [24] | [18]

B4: human THAP3, full length (protein)
chain: MPKSCAARQCCNRYSSRRKQLTFHRFPFSRPELLKEWVLNIGRGNFKPKQHTVICSEHFRPECFSAFGNRKNLKHNAVPTVFAFQDPTQQVRENTDPASERGNASSSQKEKVLPEAGAGEDSPGRNMDTALEELQLPPNAEGHVKQVSPRRPQATEAVGRPTGPAGLRRTPNKQPSDHSYALLDLDSLKKKLFLTLKENEKLRKRLQAQRLVMRRMSSRLRACKGHQGLQARLGPEQQS
binds: [25] | [1]
